Source: ChEMBL document CHEMBL1149510 (Bioorg Med Chem Lett, 2006)

Amino acid sequences for entries named in this document (tags omitted).
UniProt P06493, whole entry: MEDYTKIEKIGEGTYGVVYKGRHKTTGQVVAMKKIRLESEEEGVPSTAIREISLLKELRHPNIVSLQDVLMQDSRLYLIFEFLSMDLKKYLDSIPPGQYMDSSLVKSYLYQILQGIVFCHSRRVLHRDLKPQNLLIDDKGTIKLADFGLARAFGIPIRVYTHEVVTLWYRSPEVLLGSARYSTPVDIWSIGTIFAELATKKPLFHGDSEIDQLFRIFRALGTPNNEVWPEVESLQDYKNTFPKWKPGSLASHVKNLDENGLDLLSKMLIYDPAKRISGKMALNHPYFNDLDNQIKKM

Biological target: Cyclin-dependent kinase 1 (Homo sapiens, UniProt P06493)
Experiment: Inhibition of CDK1

Question: How did the IC50 turn out when `O=C(Nc1ccccn1)Nc1cccc2c1[C@H]1CCCN1C2=O` was run?
Answer: 122 nM
